These are yes or no findings as the source states them, for the method shown. Some binding calls cover weakened binding; strength is not graded here.
Assays:
[1] = target: T1, human Lgs/Bcl9 (hLgs/Bcl9) (human) (UniProt O00512); test: yeast two-hybrid
T1 sequence: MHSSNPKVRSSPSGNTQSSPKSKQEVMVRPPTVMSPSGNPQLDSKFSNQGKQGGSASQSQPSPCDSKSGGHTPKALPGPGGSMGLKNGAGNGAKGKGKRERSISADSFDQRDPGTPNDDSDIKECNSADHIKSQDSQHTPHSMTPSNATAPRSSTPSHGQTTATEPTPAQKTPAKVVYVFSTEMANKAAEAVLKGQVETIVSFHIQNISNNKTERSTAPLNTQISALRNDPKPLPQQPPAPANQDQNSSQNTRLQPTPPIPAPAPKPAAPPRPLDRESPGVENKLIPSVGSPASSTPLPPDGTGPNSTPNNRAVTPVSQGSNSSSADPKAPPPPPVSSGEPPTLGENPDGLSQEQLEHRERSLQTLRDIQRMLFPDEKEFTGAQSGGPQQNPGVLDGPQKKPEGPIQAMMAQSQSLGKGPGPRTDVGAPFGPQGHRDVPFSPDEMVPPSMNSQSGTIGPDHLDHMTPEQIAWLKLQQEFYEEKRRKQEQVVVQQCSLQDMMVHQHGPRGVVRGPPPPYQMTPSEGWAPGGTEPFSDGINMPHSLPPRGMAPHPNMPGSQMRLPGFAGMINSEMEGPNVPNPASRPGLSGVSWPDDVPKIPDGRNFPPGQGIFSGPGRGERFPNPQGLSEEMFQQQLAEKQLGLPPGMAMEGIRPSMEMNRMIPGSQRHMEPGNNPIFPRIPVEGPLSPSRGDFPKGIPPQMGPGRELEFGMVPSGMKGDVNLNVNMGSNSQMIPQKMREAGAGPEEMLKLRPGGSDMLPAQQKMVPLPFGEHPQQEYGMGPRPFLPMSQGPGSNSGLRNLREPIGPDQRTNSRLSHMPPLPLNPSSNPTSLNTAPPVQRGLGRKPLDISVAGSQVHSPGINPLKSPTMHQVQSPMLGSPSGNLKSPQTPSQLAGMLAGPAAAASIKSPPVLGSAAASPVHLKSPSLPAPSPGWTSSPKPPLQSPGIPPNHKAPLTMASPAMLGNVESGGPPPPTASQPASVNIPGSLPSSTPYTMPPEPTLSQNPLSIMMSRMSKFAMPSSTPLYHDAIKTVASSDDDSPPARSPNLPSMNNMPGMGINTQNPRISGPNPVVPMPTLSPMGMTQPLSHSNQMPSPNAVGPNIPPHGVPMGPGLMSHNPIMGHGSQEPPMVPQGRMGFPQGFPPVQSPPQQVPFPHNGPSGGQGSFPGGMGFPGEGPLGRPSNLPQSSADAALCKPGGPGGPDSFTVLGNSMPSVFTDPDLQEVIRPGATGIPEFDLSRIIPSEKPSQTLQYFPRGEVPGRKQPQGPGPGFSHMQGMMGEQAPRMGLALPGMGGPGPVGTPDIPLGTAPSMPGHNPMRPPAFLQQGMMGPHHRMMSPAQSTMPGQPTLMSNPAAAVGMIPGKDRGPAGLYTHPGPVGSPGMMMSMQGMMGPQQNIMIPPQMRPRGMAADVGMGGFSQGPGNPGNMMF

[2] = target: T2, Armadillo (Arm), Drosophila homologue of β-Catenin (Drosophila) (UniProt P18824); test: genetic and biochemical experiments, method not given
T2 sequence (looked up): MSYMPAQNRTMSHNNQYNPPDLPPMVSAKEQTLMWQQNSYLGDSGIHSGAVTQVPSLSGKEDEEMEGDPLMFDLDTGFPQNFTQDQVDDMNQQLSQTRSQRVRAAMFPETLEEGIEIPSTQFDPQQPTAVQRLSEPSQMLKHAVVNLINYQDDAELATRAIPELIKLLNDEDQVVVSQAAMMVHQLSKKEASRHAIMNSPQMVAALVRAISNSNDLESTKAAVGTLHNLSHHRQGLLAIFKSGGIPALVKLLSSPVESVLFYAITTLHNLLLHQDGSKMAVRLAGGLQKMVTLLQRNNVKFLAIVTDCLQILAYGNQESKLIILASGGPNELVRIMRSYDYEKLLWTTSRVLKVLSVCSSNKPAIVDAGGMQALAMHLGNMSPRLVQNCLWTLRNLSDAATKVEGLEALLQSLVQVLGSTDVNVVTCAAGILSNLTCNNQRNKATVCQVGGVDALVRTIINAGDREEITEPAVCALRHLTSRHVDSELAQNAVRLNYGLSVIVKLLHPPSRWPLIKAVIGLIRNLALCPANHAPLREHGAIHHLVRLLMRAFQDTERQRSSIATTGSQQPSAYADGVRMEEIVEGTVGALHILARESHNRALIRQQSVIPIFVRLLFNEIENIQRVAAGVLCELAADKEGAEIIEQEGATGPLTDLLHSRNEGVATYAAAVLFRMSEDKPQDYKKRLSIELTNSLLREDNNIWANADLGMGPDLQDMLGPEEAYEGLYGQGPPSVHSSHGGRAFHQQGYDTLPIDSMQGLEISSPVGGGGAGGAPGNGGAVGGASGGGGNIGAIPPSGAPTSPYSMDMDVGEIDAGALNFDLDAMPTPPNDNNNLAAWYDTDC

| Binder | binding [1] | binding [2] |
| --- | --- | --- |
| Daughter of Legless (dDoll) (protein, Drosophila, UniProt Q9V9W8 1-815, looked up) MTHNLGMAPYRLPGPAGGLCPPDFKPPPPTDIISAPSNPKKRRKTSSAANSAAAVAAAAAAAAAANSMQQQQAPPTPQDLLPPPPMGGFGDTIIASNPFDDSPQVSAMSSSAAAAMAAMNQMGGGPGGGHFGGGGPGGHPHWEDRMGMGGGPPPPPHMHPHMHPHHPGGPMGHPHGPHPHMGGPPPMRGMSPMHPHQMGPGPGVGLPPHMNHGRPGGPGGPGGPVPMGSPMGGIAGMGGMSPMGGMGGPSISPHHMGMGGLSPMGGGPNGPNPRAMQGSPMGGPGQNSPMNSLPMGSPMGNPIGSPLGPPSGPGPGNPGNTGGPQQQQQQPPQPPMNNGQMGPPPLHSPLGNGPTGHGSHMPGGPIPGPGPGPGGLVGPGGISPAHGNNPGGSGNNMLGGNPGGGNSNNNGSNTSNASNNNQNPHLSPAAGRLGVPTSMQSNGPSVSSVASSSVPSPATPTLTPTSTATSMSTSVPTSSPAPPAMSPHHSLNSAGPSPGMPNSGPSPLQSPAGPNGPNNNNSNNNNGPMMGQMIPNAVPMQHQQHMGGGPPGHGPGPMPGMGMNQMLPPQQPSHLGPPHPNMMNHPHHPHHHPGGPPPHMMGGPGMHGGPAGMPPHMGGGPNPHMMGGPHGNAGPHMGHGHMGGVPGPGPGPGGMNGPPHPHMSPHHGHPHHHHNPMGGPGPNMFGGGGGGPMGPGGPMGNMGPMGGGPMGGPMGVGPKPMTMGGGKMYPPGQPMVFNPQNPNAPPIYPCGMCHKEVNDNDEAVFCESGCNFFFHRTCVGLTEAAFQMLNKEVFAEWCCDKCVSSKHIPMVKFKC | binds | – |
| human Lgs/Bcl9 (hLgs/Bcl9) (protein) MHSSNPKVRSSPSGNTQSSPKSKQEVMVRPPTVMSPSGNPQLDSKFSNQGKQGGSASQSQPSPCDSKSGGHTPKALPGPGGSMGLKNGAGNGAKGKGKRERSISADSFDQRDPGTPNDDSDIKECNSADHIKSQDSQHTPHSMTPSNATAPRSSTPSHGQTTATEPTPAQKTPAKVVYVFSTEMANKAAEAVLKGQVETIVSFHIQNISNNKTERSTAPLNTQISALRNDPKPLPQQPPAPANQDQNSSQNTRLQPTPPIPAPAPKPAAPPRPLDRESPGVENKLIPSVGSPASSTPLPPDGTGPNSTPNNRAVTPVSQGSNSSSADPKAPPPPPVSSGEPPTLGENPDGLSQEQLEHRERSLQTLRDIQRMLFPDEKEFTGAQSGGPQQNPGVLDGPQKKPEGPIQAMMAQSQSLGKGPGPRTDVGAPFGPQGHRDVPFSPDEMVPPSMNSQSGTIGPDHLDHMTPEQIAWLKLQQEFYEEKRRKQEQVVVQQCSLQDMMVHQHGPRGVVRGPPPPYQMTPSEGWAPGGTEPFSDGINMPHSLPPRGMAPHPNMPGSQMRLPGFAGMINSEMEGPNVPNPASRPGLSGVSWPDDVPKIPDGRNFPPGQGIFSGPGRGERFPNPQGLSEEMFQQQLAEKQLGLPPGMAMEGIRPSMEMNRMIPGSQRHMEPGNNPIFPRIPVEGPLSPSRGDFPKGIPPQMGPGRELEFGMVPSGMKGDVNLNVNMGSNSQMIPQKMREAGAGPEEMLKLRPGGSDMLPAQQKMVPLPFGEHPQQEYGMGPRPFLPMSQGPGSNSGLRNLREPIGPDQRTNSRLSHMPPLPLNPSSNPTSLNTAPPVQRGLGRKPLDISVAGSQVHSPGINPLKSPTMHQVQSPMLGSPSGNLKSPQTPSQLAGMLAGPAAAASIKSPPVLGSAAASPVHLKSPSLPAPSPGWTSSPKPPLQSPGIPPNHKAPLTMASPAMLGNVESGGPPPPTASQPASVNIPGSLPSSTPYTMPPEPTLSQNPLSIMMSRMSKFAMPSSTPLYHDAIKTVASSDDDSPPARSPNLPSMNNMPGMGINTQNPRISGPNPVVPMPTLSPMGMTQPLSHSNQMPSPNAVGPNIPPHGVPMGPGLMSHNPIMGHGSQEPPMVPQGRMGFPQGFPPVQSPPQQVPFPHNGPSGGQGSFPGGMGFPGEGPLGRPSNLPQSSADAALCKPGGPGGPDSFTVLGNSMPSVFTDPDLQEVIRPGATGIPEFDLSRIIPSEKPSQTLQYFPRGEVPGRKQPQGPGPGFSHMQGMMGEQAPRMGLALPGMGGPGPVGTPDIPLGTAPSMPGHNPMRPPAFLQQGMMGPHHRMMSPAQSTMPGQPTLMSNPAAAVGMIPGKDRGPAGLYTHPGPVGSPGMMMSMQGMMGPQQNIMIPPQMRPRGMAADVGMGGFSQGPGNPGNMMF | – | binds |
